The values that follow come from article PMC12221726.

By UniProt entry, the sequences of proteins in these tests, tags left out.
UniProt P46937: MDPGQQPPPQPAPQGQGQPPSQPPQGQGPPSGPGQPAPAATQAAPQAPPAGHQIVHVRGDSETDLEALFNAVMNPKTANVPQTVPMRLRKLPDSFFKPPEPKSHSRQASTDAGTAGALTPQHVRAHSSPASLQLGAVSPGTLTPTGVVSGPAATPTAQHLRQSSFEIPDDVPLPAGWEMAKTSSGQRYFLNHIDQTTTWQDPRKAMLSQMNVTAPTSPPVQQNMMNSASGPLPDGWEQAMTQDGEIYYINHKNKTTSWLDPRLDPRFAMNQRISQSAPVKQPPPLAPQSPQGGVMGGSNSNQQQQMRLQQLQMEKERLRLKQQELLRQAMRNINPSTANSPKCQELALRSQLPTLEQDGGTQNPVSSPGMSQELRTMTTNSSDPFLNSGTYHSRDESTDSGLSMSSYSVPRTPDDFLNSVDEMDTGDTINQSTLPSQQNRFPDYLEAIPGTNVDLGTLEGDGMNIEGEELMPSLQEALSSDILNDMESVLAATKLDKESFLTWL
UniProt P31946: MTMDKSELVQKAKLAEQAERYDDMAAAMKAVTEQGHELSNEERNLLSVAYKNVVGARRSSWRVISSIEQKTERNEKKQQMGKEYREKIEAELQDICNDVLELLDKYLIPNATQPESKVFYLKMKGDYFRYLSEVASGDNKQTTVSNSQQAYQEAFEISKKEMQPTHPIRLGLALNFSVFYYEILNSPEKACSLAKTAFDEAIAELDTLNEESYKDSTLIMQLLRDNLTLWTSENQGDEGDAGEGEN

In one assay the target is wt-YAP-FLAG (UniProt P46937). Briefly: co-IP; stable cells expressing wt-YAP-FLAG or mut-YAP-FLAG (cell type and precipitating antibody not told for this experiment); co-immunoprecipitation kit.
For assay [1], the target named is Yes-associated protein (YAP) (human (endogenous in CR primary OCPM cells)) (UniProt P46937). Briefly: co-IP; co-immunoprecipitation kit, antibody covalently coupled to amine-reactive resin (YAP antibody beads are listed in the methods); lysate of CR primary cells; endogenous proteins.

These are yes or no findings as the source states them, for the method shown. Binding seen in cells or lysates may run through a third protein. Some results given as binding are weak or reduced against the parent protein; the word gives no strength.

For the substance “YWHAB (14-3-3 beta/alpha) (from UniProt P31946 1-246)”, the binding entry (with wt-YAP-FLAG; in assay [1]) was “binds” in each case.
